Source: publication PMC7044312, “NMT1 and NMT2 are lysine myristoyltransferases regulating the ARF6 GTPase cycle” (Nature Communications, 2020)
These are yes or no findings as the source states them, for the method shown. Some entries that bind do so weakly or less than the wild type.

Molecular target: T1, NMT2 (115–496), NMT catalytic domain (human) (UniProt O60551)
T1 sequence: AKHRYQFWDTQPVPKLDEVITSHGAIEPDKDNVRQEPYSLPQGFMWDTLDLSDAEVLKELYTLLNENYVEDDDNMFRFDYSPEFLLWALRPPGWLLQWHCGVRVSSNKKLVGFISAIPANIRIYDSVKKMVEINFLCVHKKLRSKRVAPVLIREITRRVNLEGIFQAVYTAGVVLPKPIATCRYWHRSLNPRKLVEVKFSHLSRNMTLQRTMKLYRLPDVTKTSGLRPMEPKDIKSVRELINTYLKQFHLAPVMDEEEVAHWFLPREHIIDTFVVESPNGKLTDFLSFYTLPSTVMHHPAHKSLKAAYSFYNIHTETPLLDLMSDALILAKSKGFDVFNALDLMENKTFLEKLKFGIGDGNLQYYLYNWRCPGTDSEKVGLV
Test: crystal structure; NMT2 8 mg/ml in 25 mM Tris-HCl pH 7.5, 120 mM NaCl, 1 mM DTT, 1 mM MgCl2, with 0.35 mM myristoyl-CoA and 3.5 mM KVLSKIF; well 22% PEG 8000, 0.1 M Bis Tris pH 6.5; hanging drop; both purified

## KVLSKIF (myristoyl on the ε-amine of the lysine (Lys3), formed in the crystal (product)) [KVLSKIF peptide (ARF6 N-terminus without G2)]
  binding: binds
